# Laboratory results: PubChem BioAssay AID1508597 (Cure First, 2020)
# Assay: 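Genes whose silencing sensitises or protects ovarian cancer cells against rucaparib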 (primary screen)
# Cells: human ovarian carcinoma lines grown from tumours: OCI-P5x (papillary serous) and OCI-C5x (clear cell)
# Reagent: siRNA pool against human genes, 1.25 pmol siRNA per well
# Timing: 72 h or 96 h, depending on the cell culture
# Conditions: rucaparib 20 µM (about IC30) or vehicle, present until read-out
# Rucaparib or vehicle: Rucaparib
# Cell line: OCI-C5x (clear cell)
# Detection: 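ATP luminescence measured at 72 or 96 h according to the culture, then normalised and expressed as percent viability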
# Reading the numbers: viability, normalised: higher = more viable cells remaining
# Rule for the call: 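Active when normalised viability falls below 80 percent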
# Calls: active = viability under 80%; inactive = viability 80% or more
# This is a random part of the about 2,100 reagents, under one of the conditions tested. 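Calls flag viability under 80% in either arm, not effects specific to rucaparib; the reference for percent is not stated.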 Unmarked entries are inactive. A reagent listed more than once was tested more than once; the source does not tell the runs apart. Not stated in the record: the 100% reference.
Gene,PubChem SID,technical replicate,"viability, normalised (%)"
BRAF,SID405527748,1,50.8 (active)
BRAF,SID405527748,2,34.7 (active)
BRAF,SID405527748,3,48.3 (active)
NME3,SID405527079,1,42 (active)
NME3,SID405527079,1,32.2 (active)
NME3,SID405527079,2,51.7 (active)
NME3,SID405527079,2,43 (active)
NME3,SID405527079,3,45 (active)
NME3,SID405527079,3,21.4 (active)
NME6,SID405527082,1,43.6 (active)
NME6,SID405527082,1,67 (active)
NME6,SID405527082,2,50.5 (active)
NME6,SID405527082,2,44.7 (active)
NME6,SID405527082,3,35.6 (active)
NME6,SID405527082,3,43.8 (active)

Continued; the last 3 above are carried over.
Gene,PubChem SID,technical replicate,"viability, normalised (%)"
NME6,SID405527082,2,44.7 (active)
NME6,SID405527082,3,35.6 (active)
NME6,SID405527082,3,43.8 (active)
CMPK1,SID405527910,1,60.9 (active)
CMPK1,SID405527910,2,53.5 (active)
CMPK1,SID405527910,3,69.9 (active)
ID4,SID405526361,1,44.7 (active)
ID4,SID405526361,2,41.3 (active)
ID4,SID405526361,3,53.7 (active)
SP100,SID405526489,1,80.1
SP100,SID405526489,2,62.1 (active)
SP100,SID405526489,3,57.5 (active)
